# Tested on: WT and ROCK1^−/− mice
# Assay: Serial doxorubicin administration, DOX-induced CTX in WT and ROCK1−/− mice
# Experimental: FIG. 1A. Schematic diagram representing serial doxorubicin administration protocol. WT and ROCK1^−/− mice received three serial injections weekly of normal saline (NS) or doxorubicin (DOX) (8 mg/kg). […]
# The generation of ROCK1 deficient mice have been previously reported. […] To assess if a deficiency of ROCK1 protects the mice from DOX induced CTX, control (WT) and ROCK1^−/− mice were injected with 8 mg/kg of DOX or normal saline (NS) once weekly for 3 consecutive weeks, for a cumulative dose of 24 mg/kg (FIG. 1A). This treatment is based on the previously described approach, which causes progressive cardiac dysfunction within three weeks after the initial injection, a scenario that mimics early-onset of DOX-induced CTX in humans.
# To elucidate the role of ROCK1 in DOX induced CTX, ROCK1^−/− mice were treated with DOX in parallel to the WT mice.
# During autophagy, the cytosolic form of microtubule-associated protein 1 light chain 3 (LC3-I) is conjugated to phosphatidylethanolamine to form LC3-II, which is recruited to autophagosomal membranes.
compound,measurement,setting,value
"COc1cccc2c1C(=O)c1c(O)c3c(c(O)c1C2=O)C[C@@](O)(C(=O)CO)C[C@@H]3O[C@H]1C[C@H](N)[C@H](O)[C@H](C)O1 [DOX, doxorubicin]",levels of Beclin 1 and AMPK phosphorylation,WT hearts with LC3-II accumulation,not accompanied by increased levels
same,focal adhesion kinase (FAK) phosphorylation,"WT mice, ventricular homogenates",decreased
same,ROCK1 expression,"WT mice, ventricular homogenates, day 21",increased

# Source: US20210338699A1 (priority 2018, published 2021)
